Our source for the log2 fold change values is the supplement of paper PMC12819154, “High-throughput peptide-centric local stability assay extends protein–ligand identification to membrane proteins, tissues and bacteria” (Nature Structural & Molecular Biology, 2025).

Protein sequences, listed by entry. Tags and fused reporters are not part of them. Lines headed by an entry give the natural chain unless they say otherwise; changes in a name come on top.
UniProt O00189: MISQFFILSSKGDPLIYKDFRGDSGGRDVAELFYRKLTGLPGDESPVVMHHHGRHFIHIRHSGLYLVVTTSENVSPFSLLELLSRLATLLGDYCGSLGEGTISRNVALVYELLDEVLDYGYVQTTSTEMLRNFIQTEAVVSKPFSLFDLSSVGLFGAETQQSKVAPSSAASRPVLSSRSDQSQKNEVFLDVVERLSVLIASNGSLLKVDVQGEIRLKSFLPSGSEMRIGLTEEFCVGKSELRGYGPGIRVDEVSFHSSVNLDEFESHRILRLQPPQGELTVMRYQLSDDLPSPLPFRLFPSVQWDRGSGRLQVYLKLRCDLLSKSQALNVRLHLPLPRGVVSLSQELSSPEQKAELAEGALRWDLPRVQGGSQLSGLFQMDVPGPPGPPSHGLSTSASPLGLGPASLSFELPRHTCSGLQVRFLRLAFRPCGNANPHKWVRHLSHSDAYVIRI
UniProt B7Z1M9: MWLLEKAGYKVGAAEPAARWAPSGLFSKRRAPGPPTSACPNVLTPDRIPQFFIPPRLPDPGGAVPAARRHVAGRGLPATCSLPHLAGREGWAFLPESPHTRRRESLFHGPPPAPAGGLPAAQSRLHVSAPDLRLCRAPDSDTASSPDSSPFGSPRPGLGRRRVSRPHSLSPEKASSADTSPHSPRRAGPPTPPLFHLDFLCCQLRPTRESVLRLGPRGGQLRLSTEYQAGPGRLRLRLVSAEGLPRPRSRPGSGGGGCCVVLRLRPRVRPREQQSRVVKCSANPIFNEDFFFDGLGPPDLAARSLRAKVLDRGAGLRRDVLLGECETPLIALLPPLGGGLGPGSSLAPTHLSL
UniProt O14776: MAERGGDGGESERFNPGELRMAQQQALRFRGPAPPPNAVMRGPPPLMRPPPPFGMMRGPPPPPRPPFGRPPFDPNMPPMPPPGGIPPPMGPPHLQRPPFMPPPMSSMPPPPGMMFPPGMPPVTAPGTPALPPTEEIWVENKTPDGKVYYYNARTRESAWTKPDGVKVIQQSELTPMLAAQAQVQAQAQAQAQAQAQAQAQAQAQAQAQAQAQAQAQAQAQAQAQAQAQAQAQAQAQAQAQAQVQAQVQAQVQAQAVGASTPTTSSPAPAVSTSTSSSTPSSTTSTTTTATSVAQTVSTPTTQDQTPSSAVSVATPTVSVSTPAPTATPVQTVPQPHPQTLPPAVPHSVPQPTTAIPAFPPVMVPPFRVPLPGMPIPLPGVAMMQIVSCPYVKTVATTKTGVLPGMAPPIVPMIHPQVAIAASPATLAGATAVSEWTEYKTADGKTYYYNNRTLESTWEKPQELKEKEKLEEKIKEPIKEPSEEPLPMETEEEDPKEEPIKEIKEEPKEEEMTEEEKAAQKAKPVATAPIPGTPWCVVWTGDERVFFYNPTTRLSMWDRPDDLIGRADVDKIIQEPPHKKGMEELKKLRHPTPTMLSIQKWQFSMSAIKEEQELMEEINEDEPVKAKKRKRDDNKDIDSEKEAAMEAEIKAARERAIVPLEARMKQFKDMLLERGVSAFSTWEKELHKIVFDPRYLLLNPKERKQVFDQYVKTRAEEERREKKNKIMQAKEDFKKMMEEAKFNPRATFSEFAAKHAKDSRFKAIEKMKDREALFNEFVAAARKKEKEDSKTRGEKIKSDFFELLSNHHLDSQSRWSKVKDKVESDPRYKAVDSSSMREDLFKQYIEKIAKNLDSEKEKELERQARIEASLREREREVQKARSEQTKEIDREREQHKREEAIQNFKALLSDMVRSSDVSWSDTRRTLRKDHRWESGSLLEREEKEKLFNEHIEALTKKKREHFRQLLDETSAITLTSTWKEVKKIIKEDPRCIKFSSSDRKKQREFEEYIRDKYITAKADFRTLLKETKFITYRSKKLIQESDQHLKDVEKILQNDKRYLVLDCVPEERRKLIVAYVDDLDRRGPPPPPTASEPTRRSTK
UniProt O14832: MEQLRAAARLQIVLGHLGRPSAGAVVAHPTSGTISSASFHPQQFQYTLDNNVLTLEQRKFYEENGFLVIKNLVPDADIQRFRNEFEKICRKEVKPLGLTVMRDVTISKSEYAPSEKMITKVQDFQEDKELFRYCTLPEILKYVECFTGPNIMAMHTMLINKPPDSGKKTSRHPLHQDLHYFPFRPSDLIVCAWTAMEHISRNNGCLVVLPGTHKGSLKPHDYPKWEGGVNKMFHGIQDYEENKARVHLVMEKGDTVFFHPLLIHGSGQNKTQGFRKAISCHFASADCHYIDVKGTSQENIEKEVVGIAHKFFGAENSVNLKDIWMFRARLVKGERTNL
UniProt O00471: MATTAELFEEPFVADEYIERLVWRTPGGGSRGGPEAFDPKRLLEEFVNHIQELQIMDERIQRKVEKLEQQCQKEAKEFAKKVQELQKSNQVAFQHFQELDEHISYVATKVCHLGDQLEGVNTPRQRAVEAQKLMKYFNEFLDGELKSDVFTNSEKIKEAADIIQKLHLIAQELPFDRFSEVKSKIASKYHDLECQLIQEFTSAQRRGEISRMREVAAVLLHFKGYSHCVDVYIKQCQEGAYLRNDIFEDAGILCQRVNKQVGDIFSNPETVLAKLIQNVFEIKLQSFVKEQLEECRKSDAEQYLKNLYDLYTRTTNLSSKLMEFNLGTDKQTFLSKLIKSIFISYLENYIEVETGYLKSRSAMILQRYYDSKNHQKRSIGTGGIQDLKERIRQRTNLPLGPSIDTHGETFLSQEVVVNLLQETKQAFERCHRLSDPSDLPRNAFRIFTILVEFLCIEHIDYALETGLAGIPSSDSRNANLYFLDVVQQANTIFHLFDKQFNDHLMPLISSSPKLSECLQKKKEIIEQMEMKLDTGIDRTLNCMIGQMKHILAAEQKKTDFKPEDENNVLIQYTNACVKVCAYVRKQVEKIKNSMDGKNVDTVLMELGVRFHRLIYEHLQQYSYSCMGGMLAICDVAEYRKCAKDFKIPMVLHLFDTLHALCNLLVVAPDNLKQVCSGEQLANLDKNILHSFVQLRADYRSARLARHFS
UniProt O14795: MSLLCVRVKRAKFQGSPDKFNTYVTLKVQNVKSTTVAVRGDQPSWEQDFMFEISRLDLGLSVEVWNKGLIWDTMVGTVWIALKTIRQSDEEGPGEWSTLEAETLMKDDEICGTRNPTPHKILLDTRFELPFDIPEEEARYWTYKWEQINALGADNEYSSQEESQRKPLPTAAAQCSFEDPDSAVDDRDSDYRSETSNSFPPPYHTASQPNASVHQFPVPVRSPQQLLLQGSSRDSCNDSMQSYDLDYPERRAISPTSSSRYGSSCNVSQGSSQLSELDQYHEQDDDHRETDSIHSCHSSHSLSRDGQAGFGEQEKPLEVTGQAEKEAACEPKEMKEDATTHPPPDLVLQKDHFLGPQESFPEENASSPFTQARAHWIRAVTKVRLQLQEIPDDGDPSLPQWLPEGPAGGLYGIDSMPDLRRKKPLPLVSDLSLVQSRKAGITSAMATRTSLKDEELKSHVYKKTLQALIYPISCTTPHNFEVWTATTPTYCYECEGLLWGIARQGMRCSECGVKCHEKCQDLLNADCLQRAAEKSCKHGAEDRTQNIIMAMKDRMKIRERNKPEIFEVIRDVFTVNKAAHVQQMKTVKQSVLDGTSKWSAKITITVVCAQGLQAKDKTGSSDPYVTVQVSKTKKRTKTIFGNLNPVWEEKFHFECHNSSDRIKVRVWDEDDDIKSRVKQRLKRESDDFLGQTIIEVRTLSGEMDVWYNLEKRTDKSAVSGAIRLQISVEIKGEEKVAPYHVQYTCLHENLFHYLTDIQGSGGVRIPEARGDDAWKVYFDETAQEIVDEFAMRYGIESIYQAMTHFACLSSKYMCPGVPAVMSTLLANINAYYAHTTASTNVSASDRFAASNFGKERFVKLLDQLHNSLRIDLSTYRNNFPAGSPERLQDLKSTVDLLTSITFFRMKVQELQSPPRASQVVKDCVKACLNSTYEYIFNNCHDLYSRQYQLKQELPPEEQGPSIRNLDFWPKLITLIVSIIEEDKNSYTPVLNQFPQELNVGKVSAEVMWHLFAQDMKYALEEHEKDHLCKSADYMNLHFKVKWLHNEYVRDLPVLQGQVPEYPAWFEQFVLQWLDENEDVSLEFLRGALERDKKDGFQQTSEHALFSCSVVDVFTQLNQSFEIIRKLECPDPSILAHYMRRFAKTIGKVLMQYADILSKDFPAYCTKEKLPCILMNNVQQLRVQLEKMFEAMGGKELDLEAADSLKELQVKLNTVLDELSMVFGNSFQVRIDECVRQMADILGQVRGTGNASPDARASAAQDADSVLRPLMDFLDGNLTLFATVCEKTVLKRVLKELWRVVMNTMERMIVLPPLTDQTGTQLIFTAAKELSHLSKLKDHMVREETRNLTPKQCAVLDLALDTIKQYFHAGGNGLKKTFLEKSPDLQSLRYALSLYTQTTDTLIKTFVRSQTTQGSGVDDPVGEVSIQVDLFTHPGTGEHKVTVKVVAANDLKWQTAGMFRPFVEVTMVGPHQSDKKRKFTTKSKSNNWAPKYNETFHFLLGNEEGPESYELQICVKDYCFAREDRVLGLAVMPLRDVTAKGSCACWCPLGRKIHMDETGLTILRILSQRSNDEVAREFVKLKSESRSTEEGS
UniProt O00764: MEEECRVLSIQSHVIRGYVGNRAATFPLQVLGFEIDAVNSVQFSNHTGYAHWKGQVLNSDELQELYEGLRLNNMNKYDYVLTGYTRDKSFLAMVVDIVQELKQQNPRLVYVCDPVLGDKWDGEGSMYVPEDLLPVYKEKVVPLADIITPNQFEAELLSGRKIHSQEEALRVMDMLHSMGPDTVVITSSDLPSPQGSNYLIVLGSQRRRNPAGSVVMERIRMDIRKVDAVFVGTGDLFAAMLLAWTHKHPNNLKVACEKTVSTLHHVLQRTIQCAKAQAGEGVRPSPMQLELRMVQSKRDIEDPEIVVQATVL
UniProt O00203: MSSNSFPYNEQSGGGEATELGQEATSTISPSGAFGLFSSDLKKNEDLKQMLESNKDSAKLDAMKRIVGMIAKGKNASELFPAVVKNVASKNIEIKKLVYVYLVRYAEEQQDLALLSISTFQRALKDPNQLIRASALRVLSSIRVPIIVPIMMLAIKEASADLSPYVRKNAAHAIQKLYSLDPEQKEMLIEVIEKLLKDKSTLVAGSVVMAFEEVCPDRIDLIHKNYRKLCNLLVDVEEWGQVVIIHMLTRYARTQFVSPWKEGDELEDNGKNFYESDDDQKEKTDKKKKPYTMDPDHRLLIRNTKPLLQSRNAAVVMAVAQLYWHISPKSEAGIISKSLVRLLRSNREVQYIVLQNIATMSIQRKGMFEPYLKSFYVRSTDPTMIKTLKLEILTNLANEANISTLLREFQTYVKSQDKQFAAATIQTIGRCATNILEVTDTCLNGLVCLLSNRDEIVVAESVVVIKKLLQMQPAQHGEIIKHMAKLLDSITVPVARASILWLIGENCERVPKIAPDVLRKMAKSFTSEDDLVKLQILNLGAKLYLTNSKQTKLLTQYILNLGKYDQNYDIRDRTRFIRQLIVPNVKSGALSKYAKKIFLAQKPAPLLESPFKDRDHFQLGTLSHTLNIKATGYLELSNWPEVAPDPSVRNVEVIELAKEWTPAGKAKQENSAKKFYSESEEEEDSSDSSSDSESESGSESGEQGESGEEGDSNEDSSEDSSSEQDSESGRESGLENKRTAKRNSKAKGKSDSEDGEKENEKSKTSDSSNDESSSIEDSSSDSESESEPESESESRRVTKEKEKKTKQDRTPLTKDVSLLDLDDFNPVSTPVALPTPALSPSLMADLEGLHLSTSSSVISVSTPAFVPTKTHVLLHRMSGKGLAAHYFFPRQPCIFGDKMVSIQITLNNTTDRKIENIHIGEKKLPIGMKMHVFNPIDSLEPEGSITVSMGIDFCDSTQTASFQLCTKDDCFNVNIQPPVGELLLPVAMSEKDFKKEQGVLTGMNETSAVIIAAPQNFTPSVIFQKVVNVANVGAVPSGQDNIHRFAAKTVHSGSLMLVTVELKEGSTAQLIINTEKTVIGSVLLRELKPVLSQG
UniProt O00541, whole entry: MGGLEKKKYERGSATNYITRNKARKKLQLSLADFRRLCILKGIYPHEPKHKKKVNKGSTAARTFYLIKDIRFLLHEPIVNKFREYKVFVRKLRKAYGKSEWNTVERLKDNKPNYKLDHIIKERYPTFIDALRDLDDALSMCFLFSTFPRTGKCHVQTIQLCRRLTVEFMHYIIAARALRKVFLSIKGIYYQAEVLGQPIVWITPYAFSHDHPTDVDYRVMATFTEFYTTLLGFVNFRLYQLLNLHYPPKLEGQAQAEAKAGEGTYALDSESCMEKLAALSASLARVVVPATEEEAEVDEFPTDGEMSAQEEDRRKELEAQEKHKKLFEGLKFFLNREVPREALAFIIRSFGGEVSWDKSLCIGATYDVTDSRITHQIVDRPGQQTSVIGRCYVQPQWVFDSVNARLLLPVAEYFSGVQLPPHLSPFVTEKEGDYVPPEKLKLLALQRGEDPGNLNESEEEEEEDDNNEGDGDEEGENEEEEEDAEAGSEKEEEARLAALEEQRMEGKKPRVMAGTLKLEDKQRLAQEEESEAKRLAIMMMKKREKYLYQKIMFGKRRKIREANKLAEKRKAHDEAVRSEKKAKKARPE

The list shows a part of the results. Most values lie at the level of the controls, where differences are scatter.

Compound in this assay: CN[C@@H]1C[C@H]2O[C@@](C)([C@@H]1OC)n1c3ccccc3c3c4c(c5c6ccccc6n2c5c31)C(=O)NC4 [staurosporine]
Briefly: log2 fold change of tryptic peptide abundance, ligand vs vehicle (limited proteolysis) (log2 ratio); higher = more trypsin-susceptible (destabilized). The following applies: ligand concentration: 20 uM; sample: K562 cleared lysate; digestion: 4 min, 22 C (HT-PELSA RT4min, Orbitrap Astral).
Regarding “CDK2AP1 (peptide sequence: EIRPTYAGSK, peptide start residue: 76) (UniProt O14519)”, the log2 fold change is 0.242. Turning to “TNFRSF10A (peptide sequence: NASIHTLLDALER, peptide start residue: 422) (UniProt O00220)”, the log2 fold change is -0.074.

For “EIF3F (peptide sequence: NMYELHKK, peptide start residue: 155) (UniProt O00303)”, the log2 fold change amounted to 0.28. For “AP4M1 (peptide sequence: VAPSSAASRPVLSSR, peptide start residue: 164) (UniProt O00189)” the value was 0.0264; for “GNPAT (peptide sequence: CYTPLVYK, peptide start residue: 54) (UniProt O15228)”, -0.383; for “NDUFS8 (peptide sequence: GLGMTLSYLFR, peptide start residue: 67) (UniProt O00217)”, -0.129. In the case of “UniProt B7Z1M9 (peptide sequence: LVSAEGLPR, peptide start residue: 238)”, the log2 fold change turned out to be 0.153. The same measure for “TCERG1 (peptide sequence: AVDSSSMR, peptide start residue: 829) (UniProt O14776)”: -0.316. Turning to “PHYH (peptide sequence: SEYAPSEK, peptide start residue: 109) (UniProt O14832)”, the log2 fold change came to 0.104. The same measure for “NDUFAB1 (peptide sequence: LMCPQEIVDYIADKK, peptide start residue: 138) (UniProt O14561)”: 0.557. Consider “CES2 (peptide sequence: ADHGDELPFVFR, peptide start residue: 455) (UniProt O00748)”, for which the log2 fold change came to 0.125.

Turning to “GOSR2 (peptide sequence: LEILSSKEPPNKR, peptide start residue: 51) (UniProt O14653)”, the log2 fold change was determined as 0.236.

Turning to “EXOC5 (peptide sequence: EIIEQMEMK, peptide start residue: 523) (UniProt O00471)”, the log2 fold change amounted to 0.472.

Take “IGF2BP3 (peptide sequence: KENAGAAEK, peptide start residue: 234) (UniProt O00425)”: the log2 fold change is 0.382.

For “SETD1A (peptide sequence: RSENSYQDAFSR, peptide start residue: 300) (UniProt O15047)”, the log2 fold change was -0.164.

Regarding “TCAF2 (peptide sequence: APVVTHQCWMDRTER, peptide start residue: 590) (UniProt A6NFQ2)”, the log2 fold change was -0.301. On to “UNC13B (peptide sequence: NKPEIFEVIRDVFTVNK, peptide start residue: 561) (UniProt O14795)”, for which the log2 fold change was 0.579. The same measure for “PDXK (peptide sequence: NPAGSVVMER, peptide start residue: 209) (UniProt O00764)”: -0.314.

Regarding “AP3B1 (peptide sequence: LEILTNLANEANISTLLR, peptide start residue: 390) (UniProt O00203)”, the log2 fold change was -0.605. The same measure for “PES1 (peptide sequence: CHVQTIQLCR, peptide start residue: 153) (UniProt O00541)”: -0.163; for “ZNF646 (peptide sequence: SADIGAEGAPSHLK, peptide start residue: 521) (UniProt O15015)”: -0.611; for “UniProt O15063 (peptide sequence: AGAMQPQQPSLPVPPPPR, peptide start residue: 684)”: 0.259. With “UniProt O15037 (peptide sequence: RQLLEVFWGQDHK, peptide start residue: 640)”, the log2 fold change was -0.762.

In the case of “UniProt O15117 (peptide sequence: FKYDGEIR, peptide start residue: 699)”, the log2 fold change was -0.367.

For “PDCD5 (peptide sequence: LSNLALVKPEKTK, peptide start residue: 56) (UniProt O14737)”, the log2 fold change was 0.61.
